No constants are given. Whether binding was seen depends on the method and setting. Binding seen in cells or lysates may run through a third protein. Some entries that bind do so weakly or less than the wild type. Where a sequence is shown, tags or fusion partners need not be part of it.
Biological target: T1, chicken MyD88 (chMyD88), 3xFLAG-tagged (chicken) (UniProt A5HNF6)
T1 sequence: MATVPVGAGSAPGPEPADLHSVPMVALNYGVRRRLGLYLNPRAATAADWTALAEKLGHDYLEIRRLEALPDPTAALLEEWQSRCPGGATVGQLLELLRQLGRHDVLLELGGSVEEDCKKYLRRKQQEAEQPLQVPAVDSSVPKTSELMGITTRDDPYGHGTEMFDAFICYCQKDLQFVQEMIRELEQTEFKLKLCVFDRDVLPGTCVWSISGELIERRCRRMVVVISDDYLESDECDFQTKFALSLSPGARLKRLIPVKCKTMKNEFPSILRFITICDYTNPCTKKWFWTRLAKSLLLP
Assay: co-IP; DF1 cells co-transfected, lysed 24 h later in RIPA buffer (50 mM Tris-HCl pH 7.4, 150 mM NaCl, 0.25% deoxycholic acid, 1 mM EDTA, 1% NP-40, 0.5% SDS); precipitated with anti-FLAG beads overnight at 4°C; immunoblot

By UniProt entry, the sequences of proteins in these tests, tags left out.
UniProt Q6U7I1: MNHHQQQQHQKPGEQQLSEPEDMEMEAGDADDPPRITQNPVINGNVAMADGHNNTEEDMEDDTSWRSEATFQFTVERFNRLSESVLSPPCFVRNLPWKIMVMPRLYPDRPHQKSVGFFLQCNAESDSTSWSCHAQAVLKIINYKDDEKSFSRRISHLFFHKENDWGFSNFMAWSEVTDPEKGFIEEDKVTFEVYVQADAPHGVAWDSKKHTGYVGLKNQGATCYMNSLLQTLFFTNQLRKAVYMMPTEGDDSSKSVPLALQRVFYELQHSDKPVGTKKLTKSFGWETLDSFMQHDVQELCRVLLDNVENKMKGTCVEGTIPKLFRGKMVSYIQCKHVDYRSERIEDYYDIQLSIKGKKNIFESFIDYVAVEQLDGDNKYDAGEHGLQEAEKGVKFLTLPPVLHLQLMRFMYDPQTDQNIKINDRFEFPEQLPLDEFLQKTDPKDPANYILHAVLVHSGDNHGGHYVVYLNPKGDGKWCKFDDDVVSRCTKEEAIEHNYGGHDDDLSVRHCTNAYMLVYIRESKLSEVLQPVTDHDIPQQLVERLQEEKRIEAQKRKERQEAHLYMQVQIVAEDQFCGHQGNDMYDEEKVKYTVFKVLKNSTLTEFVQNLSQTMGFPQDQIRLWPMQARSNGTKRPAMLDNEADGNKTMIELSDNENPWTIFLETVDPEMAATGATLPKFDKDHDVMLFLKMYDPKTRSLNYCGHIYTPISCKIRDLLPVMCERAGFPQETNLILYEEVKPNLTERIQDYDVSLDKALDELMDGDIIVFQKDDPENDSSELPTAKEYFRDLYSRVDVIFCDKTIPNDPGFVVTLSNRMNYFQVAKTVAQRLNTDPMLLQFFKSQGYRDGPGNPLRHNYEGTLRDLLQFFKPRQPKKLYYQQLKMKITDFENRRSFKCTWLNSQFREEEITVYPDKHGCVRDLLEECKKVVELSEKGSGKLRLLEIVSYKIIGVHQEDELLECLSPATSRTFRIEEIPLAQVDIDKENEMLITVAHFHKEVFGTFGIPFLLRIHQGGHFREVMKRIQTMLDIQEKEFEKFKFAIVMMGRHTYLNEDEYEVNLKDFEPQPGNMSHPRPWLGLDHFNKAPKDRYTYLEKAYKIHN

chicken USP7 (chUSP7), MYC-tagged (from UniProt Q6U7I1 1-1101) (enzyme)
binding: binds

— PMC9412818
